{"source": "PubChem BioAssay AID1671195 | Yale University – 2021", "screen": "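Knockdowns that increase or decrease uptake of fluorescent LDL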 (primary screen)", "cells": "human Huh7 hepatoma cells", "knock-down reagent": "siRNA pool against human genes, 18 nM", "timing": "about 2 to 2.5 days of knockdown, then 8 h LDL uptake", "treatment": "DiI-labelled LDL at 30 µg/ml for 8 h, in lipoprotein-deficient serum medium", "read-out": "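Per-cell DiI-LDL intensity by automated imaging; well means scaled to the plate median and given as a robust z-score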", "direction": "robust z-score: higher = more LDL uptake after knockdown", "active means": "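Active when two or more replicates show a robust z-score above 2 or below -2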", "note": "The whole screen tested about 22,000 reagents; shown is an unselected part. About 1,510 of them (6.9%) count as active. 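Active includes knockdowns raising or lowering LDL uptake; positive z-scores mean more uptake, negative mean less.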 Unmarked entries are inactive. No sequences are given here."}
{"gene symbol": "FAM230B (family with sequence similarity 230 member B)", "robust z-score, replicate 1": 1.23, "robust z-score, replicate 2": 1.5, "robust z-score, replicate 3": 0.927}
{"gene symbol": "BPI (bactericidal permeability increasing protein)", "robust z-score, replicate 1": 0.304, "robust z-score, replicate 2": 0.347, "robust z-score, replicate 3": 0.404}
{"gene symbol": "LY9 (lymphocyte antigen 9)", "robust z-score, replicate 1": 0.547, "robust z-score, replicate 2": -1.32, "robust z-score, replicate 3": 0.0785}
{"gene symbol": "FAM87A (family with sequence similarity 87 member A)", "robust z-score, replicate 1": -0.381, "robust z-score, replicate 2": -0.522, "robust z-score, replicate 3": -0.668}
{"gene symbol": "IL36RN (interleukin 36 receptor antagonist)", "robust z-score, replicate 1": -1.05, "robust z-score, replicate 2": -0.22, "robust z-score, replicate 3": -0.573}
{"gene symbol": "MEP1A (meprin A subunit alpha)", "robust z-score, replicate 1": -0.326, "robust z-score, replicate 2": -0.449, "robust z-score, replicate 3": -0.0171}
{"gene symbol": "MAML1 (mastermind like transcriptional coactivator 1)", "robust z-score, replicate 1": -0.771, "robust z-score, replicate 2": -0.844, "robust z-score, replicate 3": 0.253}
{"gene symbol": "PAQR9 (progestin and adipoQ receptor family member 9)", "robust z-score, replicate 1": -0.547, "robust z-score, replicate 2": -0.593, "robust z-score, replicate 3": -0.736}
{"gene symbol": "LONP1 (lon peptidase 1, mitochondrial)", "robust z-score, replicate 1": 0.985, "robust z-score, replicate 2": 2.02, "robust z-score, replicate 3": 1.7}
{"gene symbol": "LOC440742", "robust z-score, replicate 1": 0.056, "robust z-score, replicate 2": 0.69, "robust z-score, replicate 3": -0.511}
{"gene symbol": "DNAAF8 (dynein axonemal assembly factor 8)", "robust z-score, replicate 1": -1.48, "robust z-score, replicate 2": -0.901, "robust z-score, replicate 3": -1.46}
{"gene symbol": "MMAB (metabolism of cobalamin associated B)", "robust z-score, replicate 1": "2.18 (active)", "robust z-score, replicate 2": 2.5, "robust z-score, replicate 3": 2.5}
{"gene symbol": "CYP21A2 (cytochrome P450 family 21 subfamily A member 2)", "robust z-score, replicate 1": 0.012, "robust z-score, replicate 2": 0.156, "robust z-score, replicate 3": -0.475}
{"gene symbol": "IMP4 (IMP U3 small nucleolar ribonucleoprotein 4)", "robust z-score, replicate 1": -0.0621, "robust z-score, replicate 2": 0.0958, "robust z-score, replicate 3": 0.0646}
{"gene symbol": "CISH (cytokine inducible SH2 containing protein)", "robust z-score, replicate 1": "4.68 (active)", "robust z-score, replicate 2": 3.38, "robust z-score, replicate 3": 2.32}
{"gene symbol": "SCN8A (sodium voltage-gated channel alpha subunit 8)", "robust z-score, replicate 1": 1.06, "robust z-score, replicate 2": 0.565, "robust z-score, replicate 3": 0.731}
{"gene symbol": "TSPOAP1 (TSPO associated protein 1)", "robust z-score, replicate 1": -0.613, "robust z-score, replicate 2": -0.796, "robust z-score, replicate 3": -1.13}
{"gene symbol": "LOC441513 (retired record)", "robust z-score, replicate 1": 0.903, "robust z-score, replicate 2": 0.151, "robust z-score, replicate 3": 0.274}
{"gene symbol": "TCP11 (t-complex 11)", "robust z-score, replicate 1": 0.216, "robust z-score, replicate 2": -0.0871, "robust z-score, replicate 3": 0.948}
{"gene symbol": "ANGPTL7 (angiopoietin like 7)", "robust z-score, replicate 1": -0.546, "robust z-score, replicate 2": -0.332, "robust z-score, replicate 3": 0.676}
{"gene symbol": "ZSWIM2 (zinc finger SWIM-type containing 2)", "robust z-score, replicate 1": 0.893, "robust z-score, replicate 2": 2.38, "robust z-score, replicate 3": 1.62}
{"gene symbol": "AGPAT2 (1-acylglycerol-3-phosphate O-acyltransferase 2)", "robust z-score, replicate 1": 0.602, "robust z-score, replicate 2": 1.15, "robust z-score, replicate 3": 0.162}
{"gene symbol": "ZBTB48 (zinc finger and BTB domain containing 48)", "robust z-score, replicate 1": 0.329, "robust z-score, replicate 2": 0.15, "robust z-score, replicate 3": 0.31}
{"gene symbol": "POLR2M (RNA polymerase II subunit M)", "robust z-score, replicate 1": -0.397, "robust z-score, replicate 2": 0.295, "robust z-score, replicate 3": 0.421}
{"gene symbol": "ACOT8 (acyl-CoA thioesterase 8)", "robust z-score, replicate 1": -0.491, "robust z-score, replicate 2": -0.635, "robust z-score, replicate 3": -0.516}
{"gene symbol": "TAS2R46 (taste 2 receptor member 46)", "robust z-score, replicate 1": -0.146, "robust z-score, replicate 2": -0.123, "robust z-score, replicate 3": 0.0421}
{"gene symbol": "NEUROG2 (neurogenin 2)", "robust z-score, replicate 1": 1.33, "robust z-score, replicate 2": 1.04, "robust z-score, replicate 3": 1.22}
{"gene symbol": "CD300C (CD300c molecule)", "robust z-score, replicate 1": 0.731, "robust z-score, replicate 2": 0.899, "robust z-score, replicate 3": -0.0945}
{"gene symbol": "TMEM106B (transmembrane protein 106B)", "robust z-score, replicate 1": 1.25, "robust z-score, replicate 2": 2.3, "robust z-score, replicate 3": 1.43}
{"gene symbol": "BCAS2 (BCAS2 pre-mRNA processing factor)", "robust z-score, replicate 1": -1.38, "robust z-score, replicate 2": -0.646, "robust z-score, replicate 3": 2.3}

Reformatted: entries from further up
gene symbol,"robust z-score, replicate 1","robust z-score, replicate 2","robust z-score, replicate 3"
AGPAT2 (1-acylglycerol-3-phosphate O-acyltransferase 2),0.602,1.15,0.162
ZBTB48 (zinc finger and BTB domain containing 48),0.329,0.15,0.31
POLR2M (RNA polymerase II subunit M),-0.397,0.295,0.421
